Results: patent US20100069308A1, “Surfaces containing antibacterial polymers” (priority 2008, published 2010)
At least one structure is not confirmed: it was looked up by name or label, or the drawing left a doubt. Peptide text beside a SMILES is read from it.

Test system: bacterial colonies
Assay: Antibacterial activity in the presence of biological serum (FIG. 1, number of bacterial colonies vs concentration)
Type: cell-based
Details: after 24 hours in biological serum
Description: Due to their mechanism of action, such antibacterial peptides should not be susceptible to resistance. […] In FIG. 1, panels 100A and 100B show the number of bacterial colonies as a function of the concentration of pexiganan 101A/B and ID 1 103 A/B, after 2 and 24 hours respectively, in biological serum. […] Accordingly, a peptide alternative that kills bacteria by a mechanism similar to that of antibacterial peptides but without the biological susceptibility would provide greater protection against bacterial colonization.
FIG. 1 depicts the activity of ID 1 and an antibacterial peptide (pexiganan) in the presence of biological serum.

## CC[C@H](C)[C@H](NC(=O)CN)C(=O)NCC(=O)N[C@@H](CCCCN)C(=O)N[C@@H](Cc1ccccc1)C(=O)N[C@@H](CC(C)C)C(=O)N[C@@H](CCCCN)C(=O)N[C@@H](CCCCN)C(=O)N[C@@H](C)C(=O)N[C@@H](CCCCN)C(=O)N[C@@H](CCCCN)C(=O)N[C@@H](Cc1ccccc1)C(=O)NCC(=O)N[C@@H](CCCCN)C(=O)N[C@@H](C)C(=O)N[C@@H](Cc1ccccc1)C(=O)N[C@H](C(=O)N[C@@H](CCCCN)C(=O)N[C@H](C(=O)N[C@@H](CC(C)C)C(=O)N[C@@H](CCCCN)C(=O)N[C@@H](CCCCN)C(N)=O)[C@@H](C)CC)C(C)C [Pexiganan, reference compound] (H-GIGKFLKKAKKFGKAFVKILKK-NH2)
  Activity (number of bacterial colonies) in biological serum: no longer shows activity
